Results as given in PMC11055860.
No constants are given. Whether binding was seen depends on the method and setting. In cells and extracts the contact can be indirect. Some binding calls cover weakened binding; strength is not graded here.

Chains of the proteins cited; added tags and fusions are not shown. Residues count along the entry.
UniProt Q99523, residues 78-831: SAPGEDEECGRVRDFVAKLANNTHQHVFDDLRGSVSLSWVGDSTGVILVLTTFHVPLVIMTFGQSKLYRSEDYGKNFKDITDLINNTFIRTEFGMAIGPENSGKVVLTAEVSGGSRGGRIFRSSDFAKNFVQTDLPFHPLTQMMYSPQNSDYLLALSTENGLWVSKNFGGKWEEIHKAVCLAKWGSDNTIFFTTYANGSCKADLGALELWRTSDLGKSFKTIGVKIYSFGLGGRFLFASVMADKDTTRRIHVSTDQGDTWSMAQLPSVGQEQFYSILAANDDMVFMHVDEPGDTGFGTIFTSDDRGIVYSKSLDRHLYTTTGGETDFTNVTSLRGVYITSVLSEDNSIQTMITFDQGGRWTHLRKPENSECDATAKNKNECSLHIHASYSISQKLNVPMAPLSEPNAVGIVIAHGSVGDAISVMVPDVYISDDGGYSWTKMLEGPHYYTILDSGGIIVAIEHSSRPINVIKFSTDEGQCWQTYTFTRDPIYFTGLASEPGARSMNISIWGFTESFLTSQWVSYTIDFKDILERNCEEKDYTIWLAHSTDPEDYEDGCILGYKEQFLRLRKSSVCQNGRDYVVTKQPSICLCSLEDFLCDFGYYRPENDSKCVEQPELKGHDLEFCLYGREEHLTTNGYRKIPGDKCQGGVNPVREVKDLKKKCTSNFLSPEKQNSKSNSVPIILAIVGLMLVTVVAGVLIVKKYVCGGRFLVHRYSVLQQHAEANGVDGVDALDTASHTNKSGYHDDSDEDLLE

Target: T1, LIF receptor (human (endogenous in LX2)) (UniProt P42702)
T1 sequence: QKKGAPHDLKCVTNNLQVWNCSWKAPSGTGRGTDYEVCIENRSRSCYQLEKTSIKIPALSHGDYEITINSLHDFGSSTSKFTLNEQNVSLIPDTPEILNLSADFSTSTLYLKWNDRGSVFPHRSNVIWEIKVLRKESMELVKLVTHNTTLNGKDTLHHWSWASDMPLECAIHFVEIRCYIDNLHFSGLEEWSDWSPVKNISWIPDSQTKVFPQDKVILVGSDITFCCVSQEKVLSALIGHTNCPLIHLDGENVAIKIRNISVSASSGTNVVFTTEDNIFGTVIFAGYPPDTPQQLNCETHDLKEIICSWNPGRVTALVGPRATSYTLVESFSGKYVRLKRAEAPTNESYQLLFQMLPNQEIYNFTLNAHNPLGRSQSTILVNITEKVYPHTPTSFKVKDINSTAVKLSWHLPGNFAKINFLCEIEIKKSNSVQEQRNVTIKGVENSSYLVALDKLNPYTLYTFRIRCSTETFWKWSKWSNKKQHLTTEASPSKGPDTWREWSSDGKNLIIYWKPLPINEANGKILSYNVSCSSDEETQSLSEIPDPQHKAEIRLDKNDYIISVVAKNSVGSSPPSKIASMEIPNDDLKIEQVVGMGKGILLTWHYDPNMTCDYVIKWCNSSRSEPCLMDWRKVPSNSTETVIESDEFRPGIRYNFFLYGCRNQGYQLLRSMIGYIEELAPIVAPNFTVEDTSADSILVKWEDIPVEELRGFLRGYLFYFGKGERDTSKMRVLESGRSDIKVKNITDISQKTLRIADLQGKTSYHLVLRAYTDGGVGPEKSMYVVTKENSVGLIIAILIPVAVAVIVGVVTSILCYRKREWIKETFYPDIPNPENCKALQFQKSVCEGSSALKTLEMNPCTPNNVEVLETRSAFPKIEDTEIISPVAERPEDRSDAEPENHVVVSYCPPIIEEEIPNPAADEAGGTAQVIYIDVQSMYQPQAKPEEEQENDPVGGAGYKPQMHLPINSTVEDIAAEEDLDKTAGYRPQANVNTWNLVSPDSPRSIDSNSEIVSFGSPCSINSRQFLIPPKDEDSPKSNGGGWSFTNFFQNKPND
Test: proximity ligation; Duolink PLA in LX2 cells (pre-treated with calcipotriol), fixed in 4% paraformaldehyde and permeabilised; primary antibodies to LIFR and sortilin; signal only when the two are within 40 nm; cells in DMEM or stimulated with LIF, FL-PGRN, LIF + FL-PGRN, Trunc-PGRN or LIF + Trunc-PGRN

“Sortilin (from UniProt Q99523 78-831) (receptor)” was tested, and the binding was “binds”.
